Measured values taken from patent US7838534B2, “Quinuclidine derivatives as M3 antagonists” (Chiesi Farmaceutici S.p.A., priority 2006, dated 2010).

Experiment: lung retention after intratracheal administration (lung homogenate, plasma)
Type: in vivo
Details: guinea pig lung; intratracheal 10 nmol/kg
Protocol: Lung retention was measured by means of two parameters: […] MRTL and […]/C0.5L (%) are two meaningful and predictive parameters of the duration of a drug's effect after single dose pulmonary administration. In addition to having high lung retention no plasma levels of the present compounds were detected. […] Therefore, potential undesirable secondary effects in other tissues could be avoided.

Compound: CC(C)[N+]1(C)[C@@H]2CC[C@H]1CC(OC(=O)C(CO)c1ccccc1)C2.[Br-] (stereo partly shown) [ipratropium bromide]
- MRTL (Mean Residence Time in the Lung): 3.9 h
